According to paper PMC10226250:
These are yes or no findings as the source states them, for the method shown. In cells and extracts the contact can be indirect. Some entries that bind do so weakly or less than the wild type.

The chains behind the UniProt entries cited, without tags or fusion partners.
UniProt Q99KP6: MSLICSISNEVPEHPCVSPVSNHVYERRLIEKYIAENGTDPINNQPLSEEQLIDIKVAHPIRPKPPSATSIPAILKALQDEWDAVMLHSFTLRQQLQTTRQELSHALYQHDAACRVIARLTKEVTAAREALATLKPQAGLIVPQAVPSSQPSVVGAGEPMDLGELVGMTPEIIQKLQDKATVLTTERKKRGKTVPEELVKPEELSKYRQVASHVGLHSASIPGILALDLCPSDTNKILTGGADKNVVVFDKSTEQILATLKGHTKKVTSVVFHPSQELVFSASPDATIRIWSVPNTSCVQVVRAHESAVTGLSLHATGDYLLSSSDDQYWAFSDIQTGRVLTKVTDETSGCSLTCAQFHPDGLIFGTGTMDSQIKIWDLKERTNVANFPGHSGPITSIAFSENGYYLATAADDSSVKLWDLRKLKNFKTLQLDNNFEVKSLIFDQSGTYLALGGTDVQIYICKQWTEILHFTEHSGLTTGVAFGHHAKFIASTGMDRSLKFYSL
UniProt Q6A068: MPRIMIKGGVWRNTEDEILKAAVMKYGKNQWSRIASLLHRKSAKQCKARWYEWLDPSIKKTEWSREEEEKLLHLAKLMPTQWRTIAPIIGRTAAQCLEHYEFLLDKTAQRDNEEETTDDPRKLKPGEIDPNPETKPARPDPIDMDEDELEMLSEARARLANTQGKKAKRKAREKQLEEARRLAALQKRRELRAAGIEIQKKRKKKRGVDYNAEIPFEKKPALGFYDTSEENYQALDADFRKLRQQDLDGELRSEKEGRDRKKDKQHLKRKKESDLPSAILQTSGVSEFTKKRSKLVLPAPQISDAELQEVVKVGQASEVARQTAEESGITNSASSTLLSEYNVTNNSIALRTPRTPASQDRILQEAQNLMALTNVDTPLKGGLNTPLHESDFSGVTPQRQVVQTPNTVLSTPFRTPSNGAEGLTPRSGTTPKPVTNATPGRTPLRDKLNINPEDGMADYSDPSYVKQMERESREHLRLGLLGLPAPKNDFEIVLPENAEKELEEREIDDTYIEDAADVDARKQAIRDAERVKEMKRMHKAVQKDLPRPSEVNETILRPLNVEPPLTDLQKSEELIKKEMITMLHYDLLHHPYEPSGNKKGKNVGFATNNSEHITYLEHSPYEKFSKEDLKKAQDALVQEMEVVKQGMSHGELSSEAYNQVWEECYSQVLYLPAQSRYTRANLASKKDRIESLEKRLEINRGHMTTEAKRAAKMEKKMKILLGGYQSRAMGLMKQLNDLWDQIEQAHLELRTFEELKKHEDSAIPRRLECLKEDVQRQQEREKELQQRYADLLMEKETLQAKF

Molecular target: T1, Breast cancer amplified sequence 2 (BCAS2) (mouse (endogenous in ovary)) (UniProt Q9D287)
T1 sequence: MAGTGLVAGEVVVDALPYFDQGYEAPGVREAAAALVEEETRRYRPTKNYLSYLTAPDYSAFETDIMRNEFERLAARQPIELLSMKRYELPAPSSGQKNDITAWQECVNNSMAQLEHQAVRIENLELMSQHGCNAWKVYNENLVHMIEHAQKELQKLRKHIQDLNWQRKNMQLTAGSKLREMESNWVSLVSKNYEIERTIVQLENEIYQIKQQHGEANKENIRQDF
Assay: co-IP; BCAS2 antibody (rabbit IgG as control) on BeyoMag Protein A beads; lysate of eight-day-old mouse ovaries adsorbed overnight at 4 °C; washed three times with TBST; immunoblot for BCAS2, PRP19 and CDC5L

| Substance | binding |
| --- | --- |
| PRP19 (from UniProt Q99KP6 1-504) | binds |
| CDC5L (from UniProt Q6A068 1-802) | binds |
